Over roughly 33,000 sequences, “E-score (-0.5 to 0.5)” has its median near -8e-05; the highest 2% begin near 0.23. Some of the results follow.
target: T1, Nrg2 (UniProt P38082); assay: PBM E-score (8-mer binding enrichment) (E-score (-0.5 to 0.5)); higher = stronger / more preferred TF binding; details: protein concentration: 100 nM; construct: GST-full length
T1 sequence: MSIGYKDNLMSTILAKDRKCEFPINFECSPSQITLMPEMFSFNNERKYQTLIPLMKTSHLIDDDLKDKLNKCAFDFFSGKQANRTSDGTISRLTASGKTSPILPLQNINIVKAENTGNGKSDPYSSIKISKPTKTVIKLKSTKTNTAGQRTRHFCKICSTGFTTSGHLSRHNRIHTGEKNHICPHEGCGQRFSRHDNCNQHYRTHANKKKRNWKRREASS
Description: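 Universal 'all 10-mer' protein binding microarrays (Agilent AMADID 015681) probed with GST-tagged S. cerevisiae TFs (full-length or DBD) made by in vitro transcription/translation (PURExpress), about 100-200 nM. Bound TF was detected with fluorescent anti-GST. Each ungapped 8-mer (which stands for itself and its reverse complement) is scored by the PBM enrichment score (E-score), a modified Wilcoxon-Mann-Whitney statistic from -0.5 to +0.5, computed with the Universal PBM Analysis Suite. Scale: above 0.35 generally sequence-specific binding.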

Sequence	PBM E-score
AGTCCAGG	0.00474
ACAGAGAC	0.00483
AGGACTGA	-0.19
AGTCATTA	-0.273
CGCTAAGC	-0.027
ACACTCGC	0.141
GTAGGTCA	-0.162
CGGTGGTA	0.0251
GAGGCAGC	-0.126
GCCAATCA	-0.153
GACATCCA	-0.133
GAGTTGGA	0.0898
GGGGGAAC	-0.362
CATATCGC	-0.0386
ACCTGCAC	-0.0825
GGTTACAC	-0.165
GAAATTGC	0.0668
CCCGAGAC	-0.105
AAACCACG	9e-05
ATTTGACG	0.075
CCTCCCTC	0.0294
GCAACTCC	-0.0934
ATCAGATG	-0.0502
GAACCCAA	0.0482
GGATCTCA	0.0559

Sequence	PBM E-score
AATGCGGC	-0.00108
CGTGATAC	-0.00164
GTATGGGA	-0.244
GCGCGAAC	0.145
CAAAGTCG	-0.0236
AGTGGTAG	-0.0648
ATTGTGCC	0.0165
ATGGTAGG	-0.00768
TCCAACGA	-0.162
ACCGAAAC	0.0442
CTAGATTA	0.129
CAGTACGA	0.206
CTTAGGGC	-0.127
CTATAAAC	-0.086
CTACGCCC	-0.00369
AACGGGAT	0.0387
TAGTTCGA	0.155
ACCCTTTG	0.133
CCACCAGG	-0.258
AGTAGGGC	-0.0917
CGTTTTAC	-0.207
GTGAGTAA	0.061
ACCGGGGG	-0.411
GTCCTAAA	-0.052
ACGTCGCC	-0.156

Sequence	PBM E-score
GTATAATA	0.163
ATTGATTA	0.207
ATTAAATC	0.165
GTGTACAC	-0.0231
TACAGGCA	0.00256
AGGGCATA	0.057
CGTGTTAC	0.0578
ACCCAGCT	-0.104
ACGCCGGG	-0.124
AGATCATG	0.0864
AGCCAGAG	-0.251
AGGTCACC	-0.134
CAATGTAG	-0.0917
GACGTAGA	-0.154
AATAATAC	0.102
AAGTGCAC	0.139
CCTGTCTC	-0.0655
GCGACTTA	-0.215
ACACGCTA	-0.0187
CGATAAAG	0.00251
CTCCGTAC	0.0676
AGTCATGA	0.0922
ATACGGCA	0.193
ACGTGTAT	0.173
AACACTAG	0.152

Sequence	PBM E-score
CCGCGCTA	0.163
CTAGATAA	-0.0287
AATTGCAT	0.0011
ATCCTCTG	0.0437
ATGGCCCC	-0.285
GCGATACA	-0.00403
CGAAGTAA	0.155
ATATCAAT	0.212
ACATCTGA	-0.219
CAGTGGCA	-0.169
CAGAATTA	-0.0457
AGGGATGA	0.0313
GAGGAAGA	-0.0296
CAGCAAGG	-0.0834
ACAAATGT	0.00952
GTTCCATA	0.117
CACCTACG	-0.158
AGCTGCAT	-0.0431
CGCGGGTA	0.143
AACGACTG	-0.0845
TTCCAAAA	-0.107
ATACTAGA	0.0499
AGTAGGAT	-0.0316
AAATTTCC	0.113
ATGAGTTA	-0.0464

Sequence	PBM E-score
CATTGTCA	0.132
GACTTCTC	0.0281
CGAAAGCA	0.0802
AGGTAGAC	-0.0147
ATAGGGTC	0.212
CAACGTGG	-0.0468
ACCATTAC	-0.0379
CCAACCCC	0.0404
TGCACCCA	0.0184
GAGCGGAC	-0.162
TATATCGA	0.278
ATTCACTA	0.175
CCAGGACC	-0.11
GTGTACCA	-0.0651
GATGTGGC	-0.114
CTCGCGTA	-0.169
TAGTATAA	-0.0423
GCGTCCCA	-0.104
AAAGCCCT	-0.02
CGTAAGAC	-0.276
ATCTGGGG	-0.14
TACGCAGA	0.132
TGAAACAA	0.0421
AACCTCCG	-0.0844
GGACAACC	-0.0218

Sequence	PBM E-score
CGAGGCCC	-0.136
CCCTGAGA	0.235
CCAACGTA	-0.0757
ATCCATGC	-0.131
GGTTTAGA	-0.0936
AAGATCCG	-0.188
ACTGTGCC	0.044
CTAACGAC	-0.00279
AAAGCTTT	0.0426
ACTCAGAC	0.0411
AGTACGGA	0.122
ATAGTCTC	-0.0736
AAAACAGT	0.199
ACAGCCCG	-0.152
ACGCCTTG	-0.00755
AGTCTGAA	-0.0298
CTGATGGA	-0.033
AGAGAGAA	0.0153
AAAAGGCC	-0.197
CCGGCTGC	-0.173
CAATAAAA	0.065
AATCTCTG	-0.0668
CTGTAGAA	0.0663
AGAGGAAA	0.0137
GAGTCAGA	-0.0246

Sequence	PBM E-score
AGTGTTAA	0.114
AAAAACGG	0.0162
CCAATTAA	0.0533
ACTAACAG	0.118
AACTCCGA	-0.0256
ACACAGAG	-0.0315
CCGTTATA	-0.0815
GATAGCAA	0.0872
ATGCATTA	0.177
AGGACAAT	0.0916
ACTGAGCC	-0.0602
CAGAGAGA	0.0811
AAATCCAA	0.00036
GAAGGAGA	-0.0732
ATAACTGG	0.0459
CTAGCAAG	-0.0594
CAAACCTG	0.0357
GGAGAACA	-0.0349
GGTAAAAC	-0.165
ACAATCCG	0.00449
GAGGCCTA	-0.0547
AGGGCGCA	0.0346

Quoted from the listing.
AACTCCGA | PBM E-score: -0.0256
AAAAACGG | PBM E-score: 0.0162
ATAACTGG | PBM E-score: 0.0459
CTAGCAAG | PBM E-score: -0.0594
AGGACAAT | PBM E-score: 0.0916
ACTGAGCC | PBM E-score: -0.0602

Source: the supplement of paper PMC3334620
